Experimental data taken from paper PMC6028919, “Scc2 Is a Potent Activator of Cohesin’s ATPase that Promotes Loading by Binding Scc1 without Pds5” (Molecular Cell, 2018).
Results are given in words; binding and its absence hold for the method and conditions named. Some results given as binding are weak or reduced against the parent protein; the word gives no strength. For part of these data: Sequences can lack the tags named with a protein.

Sequences of proteins named here, by UniProt entry; tags and fusion partners are left off. A change or cut given only in a name is not applied to a line headed by its entry.
UniProt P32908: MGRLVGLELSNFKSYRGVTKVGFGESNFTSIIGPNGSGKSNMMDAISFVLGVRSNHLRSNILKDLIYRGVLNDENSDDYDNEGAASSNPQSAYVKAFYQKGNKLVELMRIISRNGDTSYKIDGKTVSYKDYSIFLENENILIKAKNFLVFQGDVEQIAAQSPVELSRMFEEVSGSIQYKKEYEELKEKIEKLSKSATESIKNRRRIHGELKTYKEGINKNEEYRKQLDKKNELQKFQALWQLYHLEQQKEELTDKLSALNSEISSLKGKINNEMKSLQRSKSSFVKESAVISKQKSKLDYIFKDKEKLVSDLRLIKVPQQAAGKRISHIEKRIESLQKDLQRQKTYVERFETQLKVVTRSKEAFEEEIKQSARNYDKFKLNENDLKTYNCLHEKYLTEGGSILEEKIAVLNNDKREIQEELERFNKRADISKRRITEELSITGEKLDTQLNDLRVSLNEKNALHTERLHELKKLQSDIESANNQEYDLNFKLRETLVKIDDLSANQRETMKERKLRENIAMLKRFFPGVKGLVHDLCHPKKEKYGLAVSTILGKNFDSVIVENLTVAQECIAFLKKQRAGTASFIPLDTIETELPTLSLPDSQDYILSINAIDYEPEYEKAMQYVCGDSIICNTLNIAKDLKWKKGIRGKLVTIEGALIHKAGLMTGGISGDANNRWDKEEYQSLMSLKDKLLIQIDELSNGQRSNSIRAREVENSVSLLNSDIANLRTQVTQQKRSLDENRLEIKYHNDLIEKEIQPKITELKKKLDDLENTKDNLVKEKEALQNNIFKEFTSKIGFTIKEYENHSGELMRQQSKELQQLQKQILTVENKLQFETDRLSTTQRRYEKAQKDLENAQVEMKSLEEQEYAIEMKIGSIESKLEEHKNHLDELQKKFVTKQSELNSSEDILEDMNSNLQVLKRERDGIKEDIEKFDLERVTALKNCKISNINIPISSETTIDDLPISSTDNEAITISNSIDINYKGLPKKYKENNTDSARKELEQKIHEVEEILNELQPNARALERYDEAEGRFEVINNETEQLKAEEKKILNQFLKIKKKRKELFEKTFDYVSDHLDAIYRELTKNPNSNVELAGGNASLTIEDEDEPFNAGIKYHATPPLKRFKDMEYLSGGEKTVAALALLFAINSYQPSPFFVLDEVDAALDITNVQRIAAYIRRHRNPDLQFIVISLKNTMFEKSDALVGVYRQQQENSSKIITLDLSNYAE
UniProt P47037: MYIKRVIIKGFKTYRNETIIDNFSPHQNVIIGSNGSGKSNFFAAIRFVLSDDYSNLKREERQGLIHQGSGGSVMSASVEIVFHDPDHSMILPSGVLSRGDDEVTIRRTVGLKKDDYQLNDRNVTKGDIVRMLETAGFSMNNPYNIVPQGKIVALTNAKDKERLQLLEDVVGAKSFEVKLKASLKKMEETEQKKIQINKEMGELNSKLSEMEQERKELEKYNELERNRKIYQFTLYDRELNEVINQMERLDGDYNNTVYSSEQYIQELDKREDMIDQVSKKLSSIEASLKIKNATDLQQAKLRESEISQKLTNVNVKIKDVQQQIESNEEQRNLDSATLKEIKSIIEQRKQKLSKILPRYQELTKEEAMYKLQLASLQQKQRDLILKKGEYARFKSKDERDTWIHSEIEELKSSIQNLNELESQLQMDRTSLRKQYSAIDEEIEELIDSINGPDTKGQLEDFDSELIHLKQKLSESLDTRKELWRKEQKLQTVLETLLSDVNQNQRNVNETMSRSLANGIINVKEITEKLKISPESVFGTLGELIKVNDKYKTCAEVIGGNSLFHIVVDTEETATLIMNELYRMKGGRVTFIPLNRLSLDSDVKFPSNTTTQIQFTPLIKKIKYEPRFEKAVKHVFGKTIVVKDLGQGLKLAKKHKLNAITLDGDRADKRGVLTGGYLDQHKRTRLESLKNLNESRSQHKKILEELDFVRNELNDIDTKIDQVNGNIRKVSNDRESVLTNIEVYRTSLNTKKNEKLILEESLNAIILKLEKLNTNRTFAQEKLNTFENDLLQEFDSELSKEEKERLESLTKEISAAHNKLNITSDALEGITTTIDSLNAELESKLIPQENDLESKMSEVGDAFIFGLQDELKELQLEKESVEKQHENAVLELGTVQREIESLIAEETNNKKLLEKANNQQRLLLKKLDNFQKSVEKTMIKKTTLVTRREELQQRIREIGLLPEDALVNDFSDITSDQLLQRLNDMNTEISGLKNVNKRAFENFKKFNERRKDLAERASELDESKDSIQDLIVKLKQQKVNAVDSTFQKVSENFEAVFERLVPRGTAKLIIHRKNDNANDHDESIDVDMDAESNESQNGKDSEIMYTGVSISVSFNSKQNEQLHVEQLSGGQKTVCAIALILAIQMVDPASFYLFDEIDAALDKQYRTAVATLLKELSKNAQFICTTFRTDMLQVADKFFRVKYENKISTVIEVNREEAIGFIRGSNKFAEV

Legend:
[1] = molecular target: T1, Scc1-2xStrepII (S. cerevisiae) (UniProt Q12158); assay: pull-down; control experiment: purified hexamer captured on streptavidin Dynabeads under the conditions of the GFP-Scc2 co-IP; washes with 150 mM NaCl; Coomassie-stained SDS-PAGE; both purified
T1 sequence: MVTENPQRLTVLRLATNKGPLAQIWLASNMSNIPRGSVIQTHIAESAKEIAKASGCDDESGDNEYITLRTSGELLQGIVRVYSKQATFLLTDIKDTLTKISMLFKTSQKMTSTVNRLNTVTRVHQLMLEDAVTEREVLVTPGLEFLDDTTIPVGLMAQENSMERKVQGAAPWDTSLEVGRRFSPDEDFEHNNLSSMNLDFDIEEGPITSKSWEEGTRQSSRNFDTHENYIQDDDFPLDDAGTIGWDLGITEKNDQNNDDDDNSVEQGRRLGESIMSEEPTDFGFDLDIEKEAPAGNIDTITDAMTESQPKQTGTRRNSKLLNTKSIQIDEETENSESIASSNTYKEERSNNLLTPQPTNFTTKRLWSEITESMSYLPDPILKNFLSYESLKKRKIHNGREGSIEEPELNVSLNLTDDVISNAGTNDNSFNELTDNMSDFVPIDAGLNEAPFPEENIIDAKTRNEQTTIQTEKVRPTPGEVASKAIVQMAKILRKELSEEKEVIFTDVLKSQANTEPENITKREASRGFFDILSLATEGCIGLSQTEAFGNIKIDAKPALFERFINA

[2] = molecular target: T2, scc1(Δ152-256)-2xStrepII (S. cerevisiae) (UniProt Q12158); assay: co-purification (StrepTrap affinity, then gel filtration); subunits co-expressed in Sf9; captured from the cleared extract by the 2xStrepII tag on Scc1, eluted with 20 mM desthiobiotin, Superose 6 Increase in 25 mM HEPES pH 8.0, 150 mM NaCl, 1 mM TCEP, 10% glycerol; SDS-PAGE
T2 sequence: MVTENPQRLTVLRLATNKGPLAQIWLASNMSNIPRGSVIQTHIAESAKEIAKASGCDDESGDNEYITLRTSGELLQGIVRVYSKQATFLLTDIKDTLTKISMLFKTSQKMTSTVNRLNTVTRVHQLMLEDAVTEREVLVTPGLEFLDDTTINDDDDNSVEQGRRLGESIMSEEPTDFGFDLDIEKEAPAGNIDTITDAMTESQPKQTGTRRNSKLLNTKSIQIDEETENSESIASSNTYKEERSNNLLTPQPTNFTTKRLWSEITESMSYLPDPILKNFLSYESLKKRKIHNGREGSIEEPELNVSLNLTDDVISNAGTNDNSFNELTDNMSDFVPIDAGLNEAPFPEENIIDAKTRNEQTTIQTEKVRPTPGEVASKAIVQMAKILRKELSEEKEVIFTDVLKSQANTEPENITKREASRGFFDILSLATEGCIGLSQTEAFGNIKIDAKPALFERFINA

[3] = molecular target: T1, Scc1-2xStrepII (S. cerevisiae); assay: as above
[4] = molecular target: cohesin tetramer (Smc1, Smc3, Scc1, Scc3) (S. cerevisiae) (UniProt P32908+P47037+Q12158+P40541); assay: as above

Measured: binding

B1: Scc3 (protein, UniProt P40541 1-1150)
chain: MTAVRRSTRIRTKSQVIEEDYDDEQNTSAQHVESDKITAKTQHEEEEEQDTGESEESSSEDDYEDQDDDDYVDTATAKRKSRKRKPKSASNTSSKRQKKKPTSAQKSAVSHAPAYHRSKKDQDQYLEIAKDFQPTELFDILSTSEDVSIEELLREWLETYSENRDKFLQEFINLLLNCCGSVARVEDHDVHSNESSNETIGEIQLLFQRQKLHEFYLLISKENKKRKNFKMGPLYQNFAEFMTKLLEVANDLQLLYVESDEDDTQIVTGNLVLDLLTWLSSFSVCKIRCFRYISTLTLYLFQDYLTQQAVNLEKNYLAKLSKQLSLEEKKKRPNNKTLEKLESTIAETQGSKVVIDSIIDNIVKLCFVHRYKDVSDLIRSESMLHLSIWIKNYPEYFLKVTFLKYFGWLLSDNSVSVRLQVTKILPHLIIQNHNSKSTDNSAIRQVFERFKTKILEVAIRDVNLDVRIHSIQVLTEASSLGYLDDSEILIISSLMFDEEFDPFKTSSFNKRSKFLSTVAKFLARVIKEKFDEFIKTHEDLPKEVDGLEVGPVVQVGIFIKILNDSLIYHLKDCAEVDSRTKIRMLTQAAEFLSPYISTHLKTICNLLISDTESNELIQKLQNSANNNSDDEDVDDEELDITPLFPIDRNSTILYLNVFHGLCAGANNPKIQTKDSVKEIVLPLFYDLLNAASIESADILCPLLESFITFSLDDWISIGYETELKKITDKTIKAFMDSTIGNSKVDMKYDIFAKFIHHIHHFEKKELQEKFLNQIATLKIHLKKFLQEKMDPNNSRDDYKDLTCSLYELYINKLTILGRDYPIEVDEELLQLFLNNFVSRIPIMFQDFDDSTAQEINFKMLVLLATWNLEKWREIIEKVRDYENSISKDLRSVWKPIAAIIGRLNTLVISLAATNETFENINSLFYLKWSACTSLMDIIVAIKIFELKLPADATTWRYSMSEQFPFYLHDNASKVLLKIFLYLESLFAKQVDVQLERVADEDANLNDLPETGFFENIETEFLLFTVKLKGLMKLNILDERFASRVALNKEKLGPLFKKIVDDTIMENPEPNKKNIQKAKSNQTQREKAPLQPNSERETDHANTENNDPDIPMTIDLEPIEESSQNNSELAPIEEHPTVVDAIDNSDEITQD
binds: [1] | [2] | [3]

B2: Pds5-Flag (protein, UniProt Q04264 1-1277)
chain: MAKGAVTKLKFNSPIISTSDQLISTNELLDRLKALHEELASLDQDNTDLTGLDKYRDALVSRKLLKHKDVGIRAFTACCLSDILRLYAPDAPYTDAQLTDIFKLVLSQFEQLGDQENGYHIQQTYLITKLLEYRSIVLLADLPSSNNLLIELFHIFYDPNKSFPARLFNVIGGILGEVISEFDSVPLEVLRLIFNKFLTYNPNEIPEGLNVTSDCGYEVSLILCDTYSNRMSRHLTKYYSEIIHEATNDDNNSRLLTVVVKLHKLVLRLWETVPELINAVIGFIYHELSSENELFRKEATKLIGQILTSYSDLNFVSTHSDTFKAWISKIADISPDVRVEWTESIPQIIATREDISKELNQALAKTFIDSDPRVRRTSVMIFNKVPVTEIWKNITNKAIYTSLLHLAREKHKEVRELCINTMAKFYSNSLNEIERTYQNKEIWEIIDTIPSTLYNLYYINDLNINEQVDSVIFEYLLPFEPDNDKRVHRLLTVLSHFDKKAFTSFFAFNARQIKISFAISKYIDFSKFLNNQESMSSSQGPIVMNKYNQTLQWLASGLSDSTKAIDALETIKQFNDERIFYLLNACVTNDIPFLTFKNCYNELVSKLQTPGLFKKYNISTGASIMPRDIAKVIQILLFRASPIIYNVSNISVLLNLSNNSDAKQLDLKRRILDDISKVNPTLFKDQIRTLKTIIKDLDDPDAEKNDNLSLEEALKTLYKASKTLKDQVDFDDTFFFTKLYDFAVESKPEITKYATKLIALSPKAEETLKKIKIRILPLDLQKDKYFTSHIIVLMEIFKKFPHVLNDDSTDIISYLIKEVLLSNQVVGDSKKEIDWVEDSLLSDTKYSAIGNKVFTLKLFTNKLRSIAPDVPRDELAESFTEKTMKLFFYLIASGGELISEFNKEFYPTPSNYQTKLRCVAGIQVLKLARISNLNNFIKPSDIIKLINLVEDESLPVRKTFLEQLKDYVANELISIKFLPLVFFTAYEPDVELKTTTKIWINFTFGLKSFKKGTIFERALPRLIHAIAHHPDIVGGLDSEGDAYLNALTTAIDYLLFYFDSIAAQENFSLLYYLSERVKNYQDKLVEDEIDEEEGPQKEEAPKKHRPYGQKMYIIGELSQMILLNLKEKKNWQHSAYPGKLNLPSDLFKPFATVQEAQLSFKTYIPESLTEKIQNNIKAKIGRILHTSQTQRQRLQKRLLAHENNESQKKKKKVHHARSQADDEEGDGDRESDSDDDSYSPSNKNETKKGHENIVMKKLRVRKEVDYKDDEDDDIEMT
binds: [1] | [3] | [4]
